According to PubChem BioAssay AID1347076 (National Center for Advancing Translational Sciences (NCATS), 2019):
Among all 400,000 compounds or so, about 13,000 (3.2%) were called active. Inconclusive results, whose numbers are uncertain, are shown with a selection of clear calls. Calls follow the shape of the dose curve; as a rule, active = well fitted cell-killing curve with a large enough effect; inconclusive = small, poorly fitted or top-dose-only effect, or effect the other way; inactive = flat fitted curve, though single readings scatter. A potency beside an inconclusive call is a rough fit, not a confirmed value.
% is scaled to controls: 0 for no effect and ±100 for the full control effect; potency is read from the fitted curve at half-maximal effect.

Assay: qHTS assay for MDR1-selective chemotherapeutics: Primary screen using the drug-selected MDR subline cells KB-V1; also: nearly all actives have a fitted effect of over 60% in size
Conditions: KB-V1 MDR cells viability, CellTiter-Glo, 72 h; activity change, negative = cytotoxicity: at 46.1 µM (top of the series)
Outline: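 KB-V1 cells (P-gp-expressing MDR subline of KB-3-1) in phenol-red-free DMEM with 10% FBS were exposed to library compounds over a concentration series for 72 h at 37 degrees C. Viability read by CellTiter-Glo luminescence; concentration-effect curves fitted after normalization.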
With `CC1CCCCN1CCCNC(=O)c1ccc2c(=O)n(CCc3ccccc3)c(=O)[nH]c2c1` (centres undefined) the Potency was inconclusive: 2.91 µM [rising, full curve, poor fit]. With `COc1ccc(N2CCC(CNC(=S)Nc3cc(C)ccc3C)C2)cc1` (centres undefined) the Potency was active: 18.4 µM. In the case of `Cc1ccc(NC(=O)CC(=O)c2ccc([N+](=O)[O-])cc2)cc1S(=O)(=O)Nc1cccc(Cl)c1`, the “activity change, negative = cytotoxicity” value is reported as inactive: -5.04%. In the case of `O=C(N/N=C/c1ccccn1)c1c[nH]c2ccccc12`, the “activity change, negative = cytotoxicity” value is reported as inactive: -11.9%. In the case of `COc1ccc(N2CCN(C(=O)c3ccc(CNS(=O)(=O)c4cccc(OC)c4)cc3)CC2)cc1`, the Potency is reported as inconclusive: 0.0092 µM [cytotoxic, full curve, poor fit]. In the case of `Cc1ccc(C)c(NC(=O)CN(C)C(=O)c2cccc(S(=O)(=O)N3CCCC3)c2)c1`, the Potency is reported as inconclusive: 29.1 µM [cytotoxic, single point]. In the case of `CC1CN(S(=O)(=O)c2cccc(C(=O)N=c3sccn3C)c2)CC(C)O1` (centres undefined), the “activity change, negative = cytotoxicity” value is reported as inactive: -3.3%. With `CC(CCc1ccccc1)NC(=O)CN1CCSc2ccccc21` (centres undefined) the Potency was inconclusive: 18.4 µM [cytotoxic, single point]. With `CC(=O)c1cccc(NC(=O)COC(=O)c2ccc3c(c2)OCO3)c1` the “activity change, negative = cytotoxicity” value was inactive: 4.74%. In the case of `Cc1ccc(NC(=O)COc2ncnc3c(Cl)cc(Cl)cc23)cc1[N+](=O)[O-]`, the “activity change, negative = cytotoxicity” value is reported as inactive: 5.51%. In the case of `COc1ccc2nc(C)c3c(c2c1)OC(C(C)(Cl)Br)C3` (centres undefined), the Potency is reported as inconclusive: 10.3 µM [cytotoxic, partial curve]. With `COc1ccc(C(=O)c2nccc3cc(OC)c(OC)cc23)cc1OC` the Potency was active: 16.4 µM. In the case of `Cn1c(N)c(C(=O)CSc2nnc(-c3ccccc3F)n2C2CC2)c(=O)n(C)c1=O`, the Potency is reported as inconclusive: 20.6 µM [cytotoxic, single point]. In the case of `Cc1noc(C)c1COc1ccc(C(=O)OCC(=O)NCCN2C(=O)CSC2=O)cc1`, the Potency is reported as inconclusive: 29.1 µM [cytotoxic, single point]. For `CC(OC(=O)CCN=C1NS(=O)(=O)c2ccccc21)C(=O)Nc1ccc(F)c(F)c1F` (centres undefined), the Potency was inconclusive: 7.31 µM [rising, partial curve, poor fit]. In the case of `COc1ccc(C(=O)OCC(=O)Nc2ncc([N+](=O)[O-])s2)cc1OC`, the Potency is reported as inconclusive: 18.4 µM [rising, single point]. For `CC(C)CCn1c(Cl)nc2c1c(=O)n(C)c(=O)n2C`, the Potency was inconclusive: 23.1 µM [cytotoxic, single point]. With `O=S(=O)(c1ccccc1)c1cnn(-c2ccccc2)c1-c1ccc(Cl)cc1` the Potency was active: 14.6 µM. With `O=C(c1ccc(Cl)cc1)c1cc([N+](=O)[O-])ccc1N1CCOCC1` the Potency was active: 1.84 µM. For `Cc1ccc(C)c(NC(=O)C(Sc2nc3ccccc3c(=O)n2CC(C)C)c2ccccc2)c1` (centres undefined), the Potency was inconclusive: 29.1 µM [cytotoxic, single point]. With `O=C(OCc1ccco1)c1ccc2c(c1)N(Cc1cccc(F)c1)C(=O)c1ccccc1S2` the Potency was inconclusive: 16.4 µM [cytotoxic, partial curve]. For `Cc1cc(C(=O)N/N=C/C=C/c2ccccc2)n[nH]1`, the “activity change, negative = cytotoxicity” value was inactive: 4.46%. For `CCC(C(=O)N1CCN(C(=O)c2ccco2)CC1)n1sc2ccccc2c1=O` (centres undefined), the Potency was inconclusive: 23.1 µM [cytotoxic, single point]. With `C[C@H]1c2cccc(O)c2C(=O)C2C(=O)C3(O)C(=O)C(C(N)=O)C(=O)[C@@H](N(C)C)[C@@H]3[C@@H](O)[C@@H]21` (some centres undefined) the “activity change, negative = cytotoxicity” value was inactive: -10.9%. With `Cc1ccc(-c2cc(C(=O)OCC(=O)c3ccccc3)c3cccc(Cl)c3n2)cc1` the “activity change, negative = cytotoxicity” value was inactive: 23.7%. For `NS(=O)(=O)c1ccc(CCNC(=O)C2CCN(S(=O)(=O)c3c(Cl)cccc3Cl)CC2)cc1`, the Potency was inconclusive: 23.1 µM [rising, single point]. For `COc1ccc(Br)c(C(=O)Nc2cc3c(cc2N2CCCC2)n(C)c(=O)c(=O)n3C)c1`, the Potency was inconclusive: 20.6 µM [rising, partial curve, poor fit]. With `Cc1cccc(N2CCN(C(=O)COc3ccc4c(c3)CCC4)CC2)c1C` the Potency was active: 20.6 µM. With `C[C@@H]1CN([C@@H](C)CO)C(=O)CCCn2cc(nn2)CO[C@H]1CN(C)C(=O)c1cc(-c2ccccc2)on1` the “activity change, negative = cytotoxicity” value was inactive: -10.6%. In the case of `Cc1ccc(S(=O)(=O)Nc2cccc(-c3ccc(N4CCCCCC4)nn3)c2)cc1C`, the Potency is reported as inconclusive: 20.6 µM [cytotoxic, partial curve, poor fit]. For `Cc1ccc(CNC(=O)c2ccc(N3CCC4(CC3)CC(c3ccccc3)=NO4)c(NC(=O)c3ccco3)c2)cc1`, the “activity change, negative = cytotoxicity” value was inactive: 0%. For `COc1cc2c3c(c1)C(C)CC(C)(C)N3C(=O)C2=O` (centres undefined), the Potency was inconclusive: 9.2 µM [cytotoxic, partial curve]. In the case of `CCN(CC)CCCNC(=S)N1CCN(c2nc3ccccc3n2CC)CC1`, the activity change, negative = cytotoxicity is reported as inconclusive: 33%. With `CCn1c(=O)c([N+](=O)[O-])c(NCc2ccc3c(c2)OCO3)c2ccccc21` the Potency was inconclusive: 18.4 µM [cytotoxic, single point]. For `Cn1c2c(c(=O)n(C)c1=O)C(NS(=O)(=O)c1ccccc1)(C(F)(F)F)C(=O)N2` (centres undefined), the Potency was inconclusive: 29.1 µM [rising, single point]. With `Cc1nc(N2CCN(S(=O)(=O)c3ccccc3C#N)CC2)c2c(-c3cccs3)csc2n1` the Potency was inconclusive: 29.1 µM [cytotoxic, single point]. With `Cc1cc(N(C)Cc2ccccc2)n2nc(-c3ccc(C(C)(C)C)cc3)nc2n1` the “activity change, negative = cytotoxicity” value was inactive: 26.2%. In the case of `Cc1ccc(NC2CCCN(C(=O)c3cn4cccc(C)c4n3)C2)cc1C` (centres undefined), the Potency is reported as inconclusive: 0.0065 µM [rising, full curve, poor fit]. In the case of `CCCc1cc(=O)n2[nH]c(C)c(-c3ccc(OC)cc3)c2n1`, the “activity change, negative = cytotoxicity” value is reported as inactive: 15.4%. In the case of `Cc1cn([C@H]2C[C@H](O)[C@@H](CNCc3ccc(-c4cc(Cl)ccc4C(F)(F)F)o3)O2)c(=O)[nH]c1=O`, the “activity change, negative = cytotoxicity” value is reported as inactive: 0.798%. With `CCOc1ccc(-c2c(C)nn3c(C)c(C(=O)NCc4ccc(Cl)cc4)cnc23)cc1OCC` the “activity change, negative = cytotoxicity” value was inactive: 0.903%. In the case of `O=C(CCN1CCc2ccccc2C1)Nc1ccc(F)c(F)c1`, the Potency is reported as inconclusive: 32.6 µM [cytotoxic, partial curve, poor fit]. With `Cc1ccc(S(=O)(=O)c2c(C)cc(C)nc2Oc2cccc(C)c2C)cc1` the Potency was inconclusive: 13 µM [cytotoxic, partial curve]. In the case of `S=c1[nH]nc(-c2ccccn2)n1/N=C/c1cccs1`, the “activity change, negative = cytotoxicity” value is reported as inactive: -3.02%. With `COc1cccc(/C=C/C(=O)OCC(=O)c2ccc[nH]2)c1` the Potency was inconclusive: 14.6 µM [rising, partial curve]. In the case of `O=C(CCNC(=O)C1CCN(S(=O)(=O)c2ccccc2)CC1)NCc1ccc(Cl)cc1`, the Potency is reported as inconclusive: 0.651 µM [rising, full curve, poor fit]. With `COc1ccccc1N1CCN(CC(O)COc2ccc3c(c2)CCC3)CC1` (centres undefined) the Potency was inconclusive: 18.4 µM [cytotoxic, single point]. For `COC(=O)c1cccc(NC(=O)c2ccc(S(=O)(=O)N(C)c3ccccc3OC)cc2)c1`, the Potency was inconclusive: 6.51 µM [cytotoxic, partial curve]. For `N=c1c(S(=O)(=O)c2ccc(F)cc2)cc2c(=O)n3ccccc3nc2n1CC1CCCO1` (centres undefined), the “activity change, negative = cytotoxicity” value was inactive: 5.67%. For `CC(=O)NCCn1c(SCc2ccccc2F)nc2ccccc2c1=O`, the Potency was inconclusive: 7.31 µM [cytotoxic, partial curve]. In the case of `CCCn1c(SCC(=O)Nc2ccc3c(c2)OCCO3)n[nH]c1=O`, the Potency is reported as inconclusive: 32.6 µM [rising, single point]. In the case of `CCOc1ccc2nc(N3C(=O)C(O)=C(C(=O)c4ccco4)C3c3ccco3)sc2c1` (centres undefined), the Potency is reported as inconclusive: 16.4 µM [rising, single point]. In the case of `Cc1ccc(S(=O)(=O)N2CCCC(C(=O)NC3CCCC3)C2)cc1Cl` (centres undefined), the Potency is reported as active: 13 µM. In the case of `CCOc1cc(CN2CCN(S(=O)(=O)Cc3ccccc3)CC2)ccc1OC`, the Potency is reported as inconclusive: 7.31 µM [cytotoxic, partial curve]. In the case of `CC(C)(C)c1ccc(C(=O)NCCCNC(=O)c2ccco2)cc1`, the Potency is reported as inconclusive: 4.61 µM [cytotoxic, partial curve]. For `O=c1cc(-c2ccccc2)c2ccc(O)c(CN3CCCCC3)c2o1`, the Potency was active: 13 µM. For `COc1ccc(CN2C(=O)C(C)Nc3ncnc(N4CCc5ccccc5C4)c32)cc1` (centres undefined), the Potency was inconclusive: 18.4 µM [cytotoxic, single point]. For `COc1ccc(CCN(C)C(=O)CCCN2C(=O)c3cccc4cccc(c34)C2=O)cc1OC`, the Potency was inconclusive: 3.66 µM [cytotoxic, partial curve]. For `O=C(Nc1cccc2ccccc12)N1CCN(Cc2ccccc2)CC1`, the Potency was inconclusive: 18.4 µM [cytotoxic, single point]. In the case of `O=C(NC1CCN(C(=S)NCc2ccco2)CC1)c1cccc(F)c1`, the Potency is reported as inconclusive: 29.1 µM [cytotoxic, single point]. For `Cc1cccc(C)c1-n1nnnc1C1(Nc2ccccc2)CCCCC1`, the Potency was inconclusive: 16.4 µM [cytotoxic, partial curve]. For `Brc1ccc2ncnc(Nc3cccc4ccccc34)c2c1`, the “activity change, negative = cytotoxicity” value was inactive: -9.07%. With `O=C(Nc1ccc(C(=O)N2CCOCC2)cc1)C1CC1` the “activity change, negative = cytotoxicity” value was inactive: -0.286%. In the case of `Cc1nc(Cl)c2c(n1)NC1=C(O2)C(=O)CCC1`, the “activity change, negative = cytotoxicity” value is reported as inactive: -0.161%. With `C=CCOc1ccc(C2NC(=S)NC(C)=C2C(=O)c2ccccc2)cc1OC` (centres undefined) the “activity change, negative = cytotoxicity” value was inactive: -2.06%. In the case of `O=C(NC1CC1)C1=C[C@H](c2ccccc2)C[C@H](OCc2ccc(CO)cc2)O1`, the “activity change, negative = cytotoxicity” value is reported as inactive: -8.27%. In the case of `COC(=O)CN(c1ccc(Cl)cc1C)S(C)(=O)=O`, the Potency is reported as inconclusive: 7.31 µM [rising, partial curve, poor fit]. For `CCC(CC)C(=O)Nc1nc(-c2ccc3c(c2)CCN3C(=O)C2CC2)c(C)s1`, the “activity change, negative = cytotoxicity” value was inactive: -0.0491%. With `Cc1ccc(NC(=O)COC(=O)CNC(=O)c2cccs2)cc1S(=O)(=O)N1CCOCC1` the Potency was inconclusive: 29.1 µM [cytotoxic, single point].
